Measured values from paper PMC9709080.
Results are given in words; binding and its absence hold for the method and conditions named. In cells and extracts the contact can be indirect. Some results given as binding are weak or reduced against the parent protein; the word gives no strength.

Chains of the proteins cited; added tags and fusions are not shown. Lines headed by an entry give the natural chain unless they say otherwise; changes in a name come on top.
UniProt P05556: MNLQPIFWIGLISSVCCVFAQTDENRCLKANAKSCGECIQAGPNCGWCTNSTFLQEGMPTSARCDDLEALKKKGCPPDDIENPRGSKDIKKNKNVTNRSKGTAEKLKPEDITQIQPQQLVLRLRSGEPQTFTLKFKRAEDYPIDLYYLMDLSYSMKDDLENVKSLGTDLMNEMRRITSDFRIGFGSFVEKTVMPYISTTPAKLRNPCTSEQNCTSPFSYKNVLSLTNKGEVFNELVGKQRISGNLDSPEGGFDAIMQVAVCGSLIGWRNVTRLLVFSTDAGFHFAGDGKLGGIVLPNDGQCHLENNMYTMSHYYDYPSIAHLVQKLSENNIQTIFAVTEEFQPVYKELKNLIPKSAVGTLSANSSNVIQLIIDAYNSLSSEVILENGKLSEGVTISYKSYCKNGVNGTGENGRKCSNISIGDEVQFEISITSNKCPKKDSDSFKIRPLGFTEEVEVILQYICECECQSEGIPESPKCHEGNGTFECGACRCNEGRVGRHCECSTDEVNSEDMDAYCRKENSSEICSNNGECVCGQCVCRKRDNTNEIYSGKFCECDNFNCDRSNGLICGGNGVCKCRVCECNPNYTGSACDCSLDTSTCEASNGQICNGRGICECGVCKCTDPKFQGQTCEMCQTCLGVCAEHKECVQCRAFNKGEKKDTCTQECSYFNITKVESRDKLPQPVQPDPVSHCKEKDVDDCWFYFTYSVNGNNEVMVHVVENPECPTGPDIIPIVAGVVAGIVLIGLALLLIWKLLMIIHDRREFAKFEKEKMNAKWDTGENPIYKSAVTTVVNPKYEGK

Tests used:
Assay in all cases: co-IP; mouse monoclonal antibody to integrin α1, αv, β1, β5 or V5 on anti-mouse IgG Dynabeads M280; 200 ug total protein of SH-SY5Y TRPM2 KO cells reconstituted with TRPM2, grown without serum for 24 h; overnight at 4 °C; washed five times with PBS with protease inhibitors; Western blot of eluates
[1] = biological target: integrin β1 (ITGB1) (human (endogenous in SH-SY5Y)) (UniProt P05556)
[2] = biological target: V5-labeled TRPM2 (wild type, full length) (human) (UniProt O94759)
[3] = biological target: integrin α1 (ITGA1) (human (endogenous in SH-SY5Y)) (UniProt P56199)

Row | Substance | binding [1] | binding [2] | binding [3]
1 | integrin α1 (ITGA1) (from UniProt P56199 29-1179) (receptor) | binds | no binding | 
2 | integrin β1 (ITGB1) (from UniProt P05556 21-798) (receptor) |  | no binding | binds
